Results: patent US7176277
No constants are given. Whether binding was seen depends on the method and setting. Binding seen in cells or lysates may run through a third protein. Some entries that bind do so weakly or less than the wild type.

Chains of the proteins cited; added tags and fusions are not shown.
UniProt Q07812: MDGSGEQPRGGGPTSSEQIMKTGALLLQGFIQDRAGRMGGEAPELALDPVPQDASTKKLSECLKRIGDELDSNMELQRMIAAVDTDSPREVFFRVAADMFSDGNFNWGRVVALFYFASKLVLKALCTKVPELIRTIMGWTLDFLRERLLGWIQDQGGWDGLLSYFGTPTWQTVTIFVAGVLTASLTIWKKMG

Target: GST-Bcl-2 [GST: P08515]
Experiment: GST pull-down, SDS-PAGE autoradiography

- binding: binds
Substance: Bax (from UniProt Q07812 1-192)
